Data: publication PMC7956269
These are yes or no findings as the source states them, for the method shown. In cells and extracts the contact can be indirect. Here binding means that the protein was enriched with, or labelled near, the bait; the list need not be complete. Where a sequence is shown, tags or fusion partners need not be part of it.

B1: Pds5b (protein, UniProt Q9NTI5 1-1447)
chain: MAHSKTRTNDGKITYPPGVKEISDKISKEEMVRRLKMVVKTFMDMDQDSEEEKELYLNLALHLASDFFLKHPDKDVRLLVACCLADIFRIYAPEAPYTSPDKLKDIFMFITRQLKGLEDTKSPQFNRYFYLLENIAWVKSYNICFELEDSNEIFTQLYRTLFSVINNGHNQKVHMHMVDLMSSIICEGDTVSQELLDTVLVNLVPAHKNLNKQAYDLAKALLKRTAQAIEPYITNFFNQVLMLGKTSISDLSEHVFDLILELYNIDSHLLLSVLPQLEFKLKSNDNEERLQVVKLLAKMFGAKDSELASQNKPLWQCYLGRFNDIHVPIRLECVKFASHCLMNHPDLAKDLTEYLKVRSHDPEEAIRHDVIVSIVTAAKKDILLVNDHLLNFVRERTLDKRWRVRKEAMMGLAQIYKKYALQSAAGKDAAKQIAWIKDKLLHIYYQNSIDDRLLVERIFAQYMVPHNLETTERMKCLYYLYATLDLNAVKALNEMWKCQNLLRHQVKDLLDLIKQPKTDASVKAIFSKVMVITRNLPDPGKAQDFMKKFTQVLEDDEKIRKQLEVLVSPTCSCKQAEGCVREITKKLGNPKQPTNPFLEMIKFLLERIAPVHIDTESISALIKQVNKSIDGTADDEDEGVPTDQAIRAGLELLKVLSFTHPISFHSAETFESLLACLKMDDEKVAEAALQIFKNTGSKIEEDFPHIRSALLPVLHHKSKKGPPRQAKYAIHCIHAIFSSKETQFAQIFEPLHKSLDPSNLEHLITPLVTIGHIALLAPDQFAAPLKSLVATFIVKDLLMNDRLPGKKTTKLWVPDEEVSPETMVKIQAIKMMVRWLLGMKNNHSKSGTSTLRLLTTILHSDGDLTEQGKISKPDMSRLRLAAGSAIVKLAQEPCYHEIITLEQYQLCALAINDECYQVRQVFAQKLHKGLSRLRLPLEYMAICALCAKDPVKERRAHARQCLVKNINVRREYLKQHAAVSEKLLSLLPEYVVPYTIHLLAHDPDYVKVQDIEQLKDVKECLWFVLEILMAKNENNSHAFIRKMVENIKQTKDAQGPDDAKMNEKLYTVCDVAMNIIMSKSTTYSLESPKDPVLPARFFTQPDKNFSNTKNYLPPEMKSFFTPGKPKTTNVLGAVNKPLSSAGKQSQTKSSRMETVSNASSSSNPSSPGRIKGRLDSSEMDHSENEDYTMSSPLPGKKSDKRDDSDLVRSELEKPRGRKKTPVTEQEEKLGMDDLTKLVQEQKPKGSQRSRKRGHTASESDEQQWPEEKRLKEDILENEDEQNSPPKKGKRGRPPKPLGGGTPKEEPTMKTSKKGSKKKSGPPAPEEEEEEERQSGNTEQKSKSKQHRVSRRAQQRAESPESSAIESTQSTPQKGRGRPSKTPSPSQPKKNVRVGRSKQAATKENDSSEEVDVFQGSSPVDDIPQEETEEEEVSTVNVRRRSAKRERR
B2: Zc3h18 (protein, UniProt Q86VM9 1-953)
chain: MDVAESPERDPHSPEDEEQPQGLSDDDILRDSGSDQDLDGAGVRASDLEDEESAARGPSQEEEDNHSDEEDRASEPKSQDQDSEVNELSRGPTSSPCEEEGDEGEEDRTSDLRDEASSVTRELDEHELDYDEEVPEEPAPAVQEDEAEKAGAEDDEEKGEGTPREEGKAGVQSVGEKESLEAAKEKKKEDDDGEIDDGEIDDDDLEEGEVKDPSDRKVRPRPTCRFFMKGNCTWGMNCRFIHPGVNDKGNYSLITKADPFPPNGAPPLGPHPLMPANPWGGPVVDEILPPPPPEPPTESAWERGLRHAKEVLKKATIRKEQEPDFEEKRFTVTIGEDEREFDKENEVFRDWNSRIPRDVRDTVLEPYADPYYDYEIERFWRGGQYENFRVQYTETEPYHNYRERERERERENRQRERERERERDRERERRQRERERERERERDKERQRRKEEWERERAKRDEKDRQHRDRDREKEREKEKGKPKPRSPQPPSRQAEPPKKEAATTGPQVKRADEWKDPWRRSKSPKKKLGVSVSPSRARRRRKTSASSASASNSSRSSSRSSSYSGSGSSRSRSRSSSYSSYSSRSSRHSSFSGSRSRSRSFSSSPSPSPTPSPHRPSIRTKGEPAPPPGKAGEKSVKKPAPPPAPPQATKTTAPVPEPTKPGDPREARRKERPARTPPRRRTLSGSGSGSGSSYSGSSSRSRSLSVSSVSSVSSATSSSSSAHSVDSEDMYADLASPVSSASSRSPAPAQTRKEKGKSKKEDGVKEEKRKRDSSTQPPKSAKPPAGGKSSQQPSTPQQAPPGQPQQGTFVAHKEIKLTLLNKAADKGSRKRYEPSDKDRQSPPPAKRPNTSPDRGSRDRKSGGRLGSPKPERQRGQNSKAPAAPADRKRQLSPQSKSSSKVTSVPGKASDPGAASTKSGKASTLSRREELLKQLKAVEDAIARKRAKIPGKA
B3: Aatf (protein, UniProt Q9NY61 1-560)
chain: MAGPQPLALQLEQLLNPRPSEADPEADPEEATAARVIDRFDEGEDGEGDFLVVGSIRKLASASLLDTDKRYCGKTTSRKAWNEDHWEQTLPGSSDEEISDEEGSGDEDSEGLGLEEYDEDDLGAAEEQECGDHRESKKSRSHSAKTPGFSVQSISDFEKFTKGMDDLGSSEEEEDEESGMEEGDDAEDSQGESEEDRAGDRNSEDDGVVMTFSSVKVSEEVEKGRAVKNQIALWDQLLEGRIKLQKALLTTNQLPQPDVFPLFKDKGGPEFSSALKNSHKALKALLRSLVGLQEELLFQYPDTRYLVDGTKPNAGSEEISSEDDELVEEKKQQRRRVPAKRKLEMEDYPSFMAKRFADFTVYRNRTLQKWHDKTKLASGKLGKGFGAFERSILTQIDHILMDKERLLRRTQTKRSVYRVLGKPEPAAQPVPESLPGEPEILPQAPANAHLKDLDEEIFDDDDFYHQLLRELIERKTSSLDPNDQVAMGRQWLAIQKLRSKIHKKVDRKASKGRKLRFHVLSKLLSFMAPIDHTTMNDDARTELYRSLFGQLHPPDEGHGD
B4: Ltv1 (protein, UniProt Q96GA3 1-475)
chain: MPHRKKKPFIEKKKAVSFHLVHRSQRDPLAADESAPQRVLLPTQKIDNEERRAEQRKYGVFFDDDYDYLQHLKEPSGPSELIPSSTFSAHNRREEKEETLVIPSTGIKLPSSVFASEFEEDVGLLNKAAPVSGPRLDFDPDIVAALDDDFDFDDPDNLLEDDFILQANKATGEEEGMDIQKSENEDDSEWEDVDDEKGDSNDDYDSAGLLSDEDCMSVPGKTHRAIADHLFWSEETKSRFTEYSMTSSVMRRNEQLTLHDERFEKFYEQYDDDEIGALDNAELEGSIQVDSNRLQEVLNDYYKEKAENCVKLNTLEPLEDQDLPMNELDESEEEEMITVVLEEAKEKWDCESICSTYSNLYNHPQLIKYQPKPKQIRISSKTGIPLNVLPKKGLTAKQTERIQMINGSDLPKVSTQPRSKNESKEDKRARKQAIKEERKERRVEKKANKLAFKLEKRRQEKELLNLKKNVEGLKL
B5: Arg1 (protein, UniProt P05089 1-322)
chain: MSAKSRTIGIIGAPFSKGQPRGGVEEGPTVLRKAGLLEKLKEQECDVKDYGDLPFADIPNDSPFQIVKNPRSVGKASEQLAGKVAEVKKNGRISLVLGGDHSLAIGSISGHARVHPDLGVIWVDAHTDINTPLTTTSGNLHGQPVSFLLKELKGKIPDVPGFSWVTPCISAKDIVYIGLRDVDPGEHYILKTLGIKYFSMTEVDRLGIGKVMEETLSYLLGRKKRPIHLSFDVDGLDPSFTPATGTPVVGGLTYREGLYITEEIYKTGLLSGLDIMEVNPSLGKTPEEVTRTVNTAVAITLACFGLAREGNHKPIDYLNPPK
B6: Csrp2 (protein, UniProt Q16527 1-193)
chain: MPVWGGGNKCGACGRTVYHAEEVQCDGRSFHRCCFLCMVCRKNLDSTTVAIHDEEIYCKSCYGKKYGPKGYGYGQGAGTLNMDRGERLGIKPESVQPHRPTTNPNTSKFAQKYGGAEKCSRCGDSVYAAEKIIGAGKPWHKNCFRCAKCGKSLESTTLTEKEGEIYCKGCYAKNFGPKGFGYGQGAGALVHAQ
B7: Ap3d1 (protein, UniProt O14617 1-1153)
chain: MALKMVKGSIDRMFDKNLQDLVRGIRNHKEDEAKYISQCIDEIKQELKQDNIAVKANAVCKLTYLQMLGYDISWAAFNIIEVMSASKFTFKRIGYLAASQSFHEGTDVIMLTTNQIRKDLSSPSQYDTGVALTGLSCFVTPDLARDLANDIMTLMSHTKPYIRKKAVLIMYKVFLKYPESLRPAFPRLKEKLEDPDPGVQSAAVNVICELARRNPKNYLSLAPLFFKLMTSSTNNWVLIKIIKLFGALTPLEPRLGKKLIEPLTNLIHSTSAMSLLYECVNTVIAVLISLSSGMPNHSASIQLCVQKLRILIEDSDQNLKYLGLLAMSKILKTHPKSVQSHKDLILQCLDDKDESIRLRALDLLYGMVSKKNLMEIVKKLMTHVDKAEGTTYRDELLTKIIDICSQSNYQYITNFEWYISILVELTRLEGTRHGHLIAAQMLDVAIRVKAIRKFAVSQMSALLDSAHLLASSTQRNGICEVLYAAAWICGEFSEHLQEPHHTLEAMLRPRVTTLPGHIQAVYVQNVVKLYASILQQKEQAGEAEGAQAVTQLMVDRLPQFVQSADLEVQERASCILQLVKHIQKLQAKDVPVAEEVSALFAGELNPVAPKAQKKVPVPEGLDLDAWINEPLSDSESEDERPRAVFHEEEQRRPKHRPSEADEEELARRREARKQEQANNPFYIKSSPSPQKRYQDTPGVEHIPVVQIDLSVPLKVPGLPMSDQYVKLEEERRHRQKLEKDKRRKKRKEKEKKGKRRHSSLPTESDEDIAPAQQVDIVTEEMPENALPSDEDDKDPNDPYRALDIDLDKPLADSEKLPIQKHRNTETSKSPEKDVPMVEKKSKKPKKKEKKHKEKERDKEKKKEKEKKKSPKPKKKKHRKEKEERTKGKKKSKKQPPGSEEAAGEPVQNGAPEEEQLPPESSYSLLAENSYVKMTCDIRGSLQEDSQVTVAIVLENRSSSILKGMELSVLDSLNARMARPQGSSVHDGVPVPFQLPPGVSNEAQYVFTIQSIVMAQKLKGTLSFIAKNDEGATHEKLDFRLHFSCSSYLITTPCYSDAFAKLLESGDLSMSSIKVDGIRMSFQNLLAKICFHHHFSVVERVDSCASMYSRSIQGHHVCLLVKKGENSVSVDGKCSDSTLLSNLLEEMKATLAKC
B8: Luc7l3 (protein, UniProt O95232 1-432)
chain: MISAAQLLDELMGRDRNLAPDEKRSNVRWDHESVCKYYLCGFCPAELFTNTRSDLGPCEKIHDENLRKQYEKSSRFMKVGYERDFLRYLQSLLAEVERRIRRGHARLALSQNQQSSGAAGPTGKNEEKIQVLTDKIDVLLQQIEELGSEGKVEEAQGMMKLVEQLKEERELLRSTTSTIESFAAQEKQMEVCEVCGAFLIVGDAQSRVDDHLMGKQHMGYAKIKATVEELKEKLRKRTEEPDRDERLKKEKQEREEREKEREREREERERKRRREEEEREKERARDRERRKRSRSRSRHSSRTSDRRCSRSRDHKRSRSRERRRSRSRDRRRSRSHDRSERKHRSRSRDRRRSKSRDRKSYKHRSKSRDREQDRKSKEKEKRGSDDKKSSVKSGSREKQSEDTNTESKESDTKNEVNGTSEDIKSEGDTQSN
B9: Ssr1 (protein, UniProt P43307 19-286)
chain: VLFRGGPRGLLAVAQDLTEDEETVEDSIIEDEDDEAEVEEDEPTDLVEDKEEEDVSGEPEASPSADTTILFVKGEDFPANNIVKFLVGFTNKGTEDFIVESLDASFRYPQDYQFYIQNFTALPLNTVVPPQRQATFEYSFIPAEPMGGRPFGLVINLNYKDLNGNVFQDAVFNQTVTVIEREDGLDGETIFMYMFLAGLGLLVIVGLHQLLESRKRKRPIQKVEMGTSSQNDVDMSWIPQETLNQINKASPRRLPRKRAQKRSVGSDE

target: Biotin-FOXC1 (mouse) (UniProt Q61572); test: affinity purification with mass spectrometry; streptavidin-agarose precipitation of biotinylated FOXC1 from nuclear extract of stable HEK293T cells (293T-Biotin-FOXC1); IP350 buffer (350 mM NaCl, 20 mM Tris-HCl pH 7.5, 0.5% NP40, 1 mM EDTA, 10% glycerin); SDS-PAGE, LC-ESI-MS/MS; proteins of the 293T-Biotin control deducted

Which binding does the source give for B1 here?
The binding was “binds”.

For B2, which binding is on record?
The binding was “binds”.

With B3 as the binder, how does the binding read?
The binding was “binds”.

For B4, which binding is on record?
Its binding is “binds”.

With B5 as the binder, how does the binding read?
The binding was “binds”.

For B6, which binding is on record?
The binding was “binds”.

B7 was tested. Which binding did it give?
The binding was “binds”.

With B8 as the binder, how does the binding read?
Its binding is “binds”.

Which binding does the source give for B9 here?
Its binding is “binds”.
